Screening data

From PubChem BioAssay record AID1224904 (Broad Institute, 2016).

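Selective DUX4 reporter inhibition in doxycycline-induced 293T-iDUX4 cells, scored as Gaussia percent activity minus Italica percent activity, after a 24-hour treatment. The test concentration is not given here. Percent difference between the Gaussia and Italica channels; more negative values mean more selective suppression of the DUX4 reporter, and higher values mean less activity.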

Values are in %. The controls that fix the scale are not given here. Common to all entries: measured here: selective DUX4 reporter inhibition. This is a side read-out of the assay, for part of the compounds, not drawn at random.

structure	Gaussia minus Italica difference (%)
CCC(=O)Nc1ccc2c(c1)OC[C@H](C)N(Cc1ccccc1F)C[C@@H](C)[C@@H](OC)CN(C)C2=O	-11.83
O=C(c1ccccc1F)N1CC[C@@H]2[C@H](CO)Nc3ccc(-c4cccc(F)c4)cc3[C@@H]21	-19.99
O=C(C[C@H]1C[C@@H]2c3cc(NC(=O)c4cccnc4)ccc3O[C@@H]2[C@@H](CO)O1)NCc1ccc(Oc2ccccc2)cc1	-15.47
COc1ccc2c3c(n(C)c2c1)[C@@H](CO)N(Cc1ccc(Cl)cc1)CC31CCN(C(=O)NC(C)C)CC1	2.348
COc1ccc2c3c(n(C)c2c1)[C@H](CO)N(CC1CC1)CC31CN(S(=O)(=O)c2cccs2)C1	4.493
COc1ccc2c3c(n(C)c2c1)[C@@H](CO)N(Cc1ccccc1)CC31CCN(C(=O)c2ccccc2F)CC1	-14.04
Cc1ccccc1S(=O)(=O)N1CC(=O)N2[C@@H](CO)[C@@H](c3ccc(C#CC4CC4)cc3)[C@@H]2C1	-11.68
OC[C@@H]1Nc2ccc(C#Cc3cccnc3)cc2[C@H]2NCC[C@@H]12	-22.23
Cc1ccc(-c2ccc([C@H]3[C@H]4CN(S(=O)(=O)c5ccccc5C)CCCCN4[C@H]3CO)cc2)cc1	-5.574
C[C@H]1CN([C@@H](C)CO)C(=O)c2c(c3ccccc3n2C)-c2ccccc2CO[C@H]1CN(C)C(=O)Cc1ccccc1	24.2
O=C(Nc1ccc(C(F)(F)F)cc1)Nc1ccc2c(c1)[C@@H]1C[C@H](CC(=O)N3CCc4ccccc4C3)O[C@@H](CO)[C@@H]1O2	-5.58
COc1cccc(CN2CC3(C2)[C@H](c2ccccc2)[C@H](CO)N3C(=O)Cc2ccccc2)c1	-21.53
CCCN(C)C[C@H]1OCc2cnnn2CCCC(=O)N([C@H](C)CO)C[C@@H]1C	-17.01
COC(=O)c1ccc(CN2CC(=O)N3[C@H](CO)[C@H](c4ccc(-c5ccccc5F)cc4)[C@@H]3C2)cc1	-7.613
COc1cccc(C(=O)Nc2ccc3c(c2)C(=O)N(C)[C@@H]2CC[C@@H](CC(=O)NCc4ccccc4F)O[C@H]2CO3)c1	7.721
COc1ccc(C#Cc2ccc3c(c2)[C@@H]2[C@@H](CCN2C(=O)c2ccncc2)[C@@H](CO)N3C)cc1	-22.04
CN1c2ccc(C#Cc3ccccc3F)cc2[C@@H]2[C@@H](CCN2C(=O)Cc2cccnc2)[C@H]1CO	-21.56
COc1ccc(S(=O)(=O)Nc2ccc3c(c2)C(=O)N([C@H](C)CO)C[C@H](C)[C@@H](CN(C)C(=O)Nc2cccc4ccccc24)OCCCC[C@@H](C)O3)cc1	10.19
COc1cccc(C(=O)Nc2ccc3c(c2)OC[C@@H](C)N(CCc2ccccc2)C[C@@H](C)[C@H](OC)CN(C)C3=O)c1	-12.09
COc1ccc(CN2C[C@H](O)COC[C@H]3O[C@@H](CC(=O)N4CCc5ccccc5C4)CC[C@@H]32)cc1	-8.104
OC[C@@H]1[C@@H](c2ccc(-c3ccc(F)cc3)cc2)[C@H]2CN(CCC(F)(F)F)CCCCN12	-7.255
C[C@H]1CN([C@@H](C)CO)C(=O)CCCn2cc(nn2)CO[C@H]1CN(C)Cc1ccc(C(=O)Nc2ccccc2N)cc1	-13.08
COc1cccc(S(=O)(=O)Nc2ccc3c(c2)[C@H]2C[C@H](CC(=O)NCc4ccc(Cl)cc4)O[C@@H](CO)[C@H]2O3)c1	-9.208
COc1ccc2c3c([nH]c2c1)[C@@H](CO)N(C(=O)NC(C)C)CC31CCN(Cc2ccccc2)CC1	26.87
COc1ccc2c3c(n(C)c2c1)[C@H](CO)N(Cc1ccc2c(c1)OCO2)CC31CN(C)C1	-19.33
Cc1ccccc1S(=O)(=O)N(C)C[C@@H]1OCc2ccccc2-c2c(n(C)c3ccccc23)C(=O)N([C@@H](C)CO)C[C@H]1C	-20.63
CN1c2ccc(-c3ccc(F)cc3)cc2[C@@H]2[C@@H](CCN2S(=O)(=O)c2cccc(F)c2)[C@H]1CO	-20.78
COc1ccc2c3c(n(C)c2c1)[C@H](CO)NCC31CN(C(=O)c2ccccc2)C1	-20.04
Cc1ccccc1S(=O)(=O)N1CCCCN2[C@H](C1)[C@@H](c1ccc(C#CCN(C)C)cc1)[C@@H]2CO	6.213
COc1cccc(S(=O)(=O)N2CCCCN3[C@H](CO)[C@H](c4ccc(C#CCC(C)C)cc4)[C@H]3C2)c1	-1.103
O=C(NCC1CC1)[C@@H]1[C@@H](CO)[C@@H]2Cn3c(cccc3=O)[C@@H]2N1CCC(F)(F)F	-9.406
O=C(C[C@@H]1CC[C@@H]2[C@H](COC[C@@H](O)CN2Cc2cccc(-c3ccncc3)c2)O1)N1CCN(c2ccccc2)CC1	2.99
COc1ccccc1CN1[C@H](CO)[C@@H](c2ccccc2)C12CN(C(=O)c1ccccn1)C2	-2.554
N#Cc1cccc(-c2ccc3c(c2)[C@@H]2[C@@H](CCN2C(=O)CN2CCOCC2)[C@@H](CO)N3)c1	-12.78
CCCNC(=O)N1CC(=O)N2[C@H](CO)[C@@H](c3ccc(C#Cc4cccc(OC)c4)cc3)[C@@H]2C1	-1.522
OC[C@@H]1[C@@H](c2ccccc2)C2(CN(Cc3cc(F)ccc3F)C2)N1CC1CCCC1	-17.55
O=C(Nc1ccccc1)N1CC(=O)N2[C@H](CO)[C@H](c3ccc(-c4ccc(F)cc4)cc3)[C@@H]2C1	1.118
COc1ccc(-c2ccc3n(c2=O)C[C@H]2[C@H](CO)[C@@H](C(=O)N4CCCCC4)[C@@H]3N2C)cc1	-9.537
CN1c2ccc(-c3ccc(C#N)cc3)cc2[C@H]2[C@H](CCN2S(=O)(=O)c2ccc(F)cc2)[C@@H]1CO	-2.432
O=C(C1CCC1)N1CC2(C1)[C@@H](c1ccccc1)[C@@H](CO)N2CC1CCCC1	-20.28
CC(C)NC(=O)N1CCCCN2[C@H](CO)[C@H](c3ccc(C#Cc4ccccc4F)cc3)[C@H]2C1	1.106
N#Cc1cccc(-c2ccc([C@H]3[C@@H](CO)N4CCCCN(S(=O)(=O)c5ccccc5)C[C@H]34)cc2)c1	-12.28
C[C@H](CO)N1C[C@H](C)[C@H](CN(C)S(=O)(=O)c2ccc(C#N)cc2)OCc2ccccc2-c2c(n(C)c3ccccc23)C1=O	5.542
COc1ccc(C#Cc2ccc([C@@H]3[C@H]4CN(C(=O)C5CCOCC5)CC(=O)N4[C@H]3CO)cc2)cc1	-1.515
COc1ccc2c3c([nH]c2c1)[C@@H](CO)N(C(=O)NC(C)C)CC31CCN(Cc2ccc(F)cc2)CC1	34.01
COC(=O)C[C@H]1CC[C@H]2[C@@H](COc3ccc(NC(=O)Nc4cccc(C#N)c4)cc3C(=O)N2C)O1	4.063
COc1ccc2c3c(n(C)c2c1)[C@H](CO)NCC31CCN(Cc2ccc(Cl)cc2)CC1	15.95
O=S(=O)(c1cccs1)N1CCCCN2[C@H](CO)[C@H](c3ccc(C4=CCCC4)cc3)[C@@H]2C1	-3.346
CCCN(C)C[C@@H]1Oc2cc(/C=C/c3ccccc3)ccc2S(=O)(=O)N([C@@H](C)CO)C[C@H]1C	3.518
CCCC(=O)Nc1ccc2c(c1)OC[C@@H](C)N(CCc1ccccc1)C[C@@H](C)[C@H](OC)CN(C)C2=O	-9.941
CC(C)CC#Cc1ccc([C@H]2[C@@H](CO)N3CCCCN(S(=O)(=O)c4ccc(F)cc4)C[C@H]23)cc1	-15.06
CN(C)C(=O)c1cccc(-c2ccc3c(c2)[C@H]2[C@H](CCN2C(=O)c2ccc(F)cc2)[C@@H](CO)N3C)c1	-4.046
N#Cc1cccc(-c2ccc3c(c2)[C@H]2[C@H](CCN2C(=O)c2ccc4c(c2)OCO4)[C@@H](CO)N3)c1	-1.233
O=C(C[C@H]1CC[C@@H](NC(=O)Nc2cc(F)ccc2F)[C@H](CO)O1)Nc1ccc(-c2ccccc2)cc1	-1.799
COc1cccc(C#Cc2ccc([C@@H]3[C@@H](CO)N4C(=O)CN(C(=O)Cc5cccnc5)C[C@@H]34)cc2)c1	2.28

For reference, 5 entries once more:

With COc1ccc2c3c(n(C)c2c1)[C@H](CO)N(CC1CC1)CC31CN(S(=O)(=O)c2cccs2)C1 the assay gave Gaussia minus Italica difference 4.493%.
With C[C@H](CO)N1C[C@H](C)[C@H](CN(C)S(=O)(=O)c2ccc(C#N)cc2)OCc2ccccc2-c2c(n(C)c3ccccc23)C1=O the assay gave Gaussia minus Italica difference 5.542%.
With O=C(C1CCC1)N1CC2(C1)[C@@H](c1ccccc1)[C@@H](CO)N2CC1CCCC1 the assay gave Gaussia minus Italica difference -20.28%.
With Cc1ccccc1S(=O)(=O)N1CC(=O)N2[C@@H](CO)[C@@H](c3ccc(C#CC4CC4)cc3)[C@@H]2C1 the assay gave Gaussia minus Italica difference -11.68%.
With CC(C)CC#Cc1ccc([C@H]2[C@@H](CO)N3CCCCN(S(=O)(=O)c4ccc(F)cc4)C[C@H]23)cc1 the assay gave Gaussia minus Italica difference -15.06%.